Source: US20140314790A1, “CASPASE 9 INHIBITION AND BRI2 PEPTIDES FOR TREATING DEMENTIA” (ALBERT EINSTEIN COLLEGE OF MEDICINE OF YESHIVA UNIVERSITY, priority 2011, published 2014)
No constants are given. Whether binding was seen depends on the method and setting. Some results given as binding are weak or reduced against the parent protein; the word gives no strength. For some assays here: Tags and fused reporters may be left off the sequences shown.

Chains of the proteins cited; added tags and fusions are not shown. Residues count along the entry.
UniProt P05067, residues 18-770: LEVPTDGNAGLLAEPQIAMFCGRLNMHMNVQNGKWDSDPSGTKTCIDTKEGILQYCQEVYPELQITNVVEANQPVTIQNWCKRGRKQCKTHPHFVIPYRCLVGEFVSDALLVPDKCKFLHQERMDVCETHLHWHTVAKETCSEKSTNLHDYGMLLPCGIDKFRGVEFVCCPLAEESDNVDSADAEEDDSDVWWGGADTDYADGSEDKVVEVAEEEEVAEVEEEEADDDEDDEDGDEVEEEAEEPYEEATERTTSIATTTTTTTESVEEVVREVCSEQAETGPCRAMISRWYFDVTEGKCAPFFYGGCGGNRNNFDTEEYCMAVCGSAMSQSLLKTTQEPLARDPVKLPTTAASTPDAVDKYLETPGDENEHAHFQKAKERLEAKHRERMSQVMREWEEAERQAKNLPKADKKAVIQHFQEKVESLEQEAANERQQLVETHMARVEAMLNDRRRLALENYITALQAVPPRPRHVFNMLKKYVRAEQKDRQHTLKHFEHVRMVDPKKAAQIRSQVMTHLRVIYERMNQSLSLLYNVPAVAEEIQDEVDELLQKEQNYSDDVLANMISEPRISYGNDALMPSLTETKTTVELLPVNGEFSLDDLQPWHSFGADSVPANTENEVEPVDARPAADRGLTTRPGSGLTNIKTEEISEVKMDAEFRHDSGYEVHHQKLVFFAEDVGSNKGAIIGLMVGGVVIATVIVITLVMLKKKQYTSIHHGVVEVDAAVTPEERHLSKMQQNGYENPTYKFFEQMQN
UniProt P12023, residues 18-770: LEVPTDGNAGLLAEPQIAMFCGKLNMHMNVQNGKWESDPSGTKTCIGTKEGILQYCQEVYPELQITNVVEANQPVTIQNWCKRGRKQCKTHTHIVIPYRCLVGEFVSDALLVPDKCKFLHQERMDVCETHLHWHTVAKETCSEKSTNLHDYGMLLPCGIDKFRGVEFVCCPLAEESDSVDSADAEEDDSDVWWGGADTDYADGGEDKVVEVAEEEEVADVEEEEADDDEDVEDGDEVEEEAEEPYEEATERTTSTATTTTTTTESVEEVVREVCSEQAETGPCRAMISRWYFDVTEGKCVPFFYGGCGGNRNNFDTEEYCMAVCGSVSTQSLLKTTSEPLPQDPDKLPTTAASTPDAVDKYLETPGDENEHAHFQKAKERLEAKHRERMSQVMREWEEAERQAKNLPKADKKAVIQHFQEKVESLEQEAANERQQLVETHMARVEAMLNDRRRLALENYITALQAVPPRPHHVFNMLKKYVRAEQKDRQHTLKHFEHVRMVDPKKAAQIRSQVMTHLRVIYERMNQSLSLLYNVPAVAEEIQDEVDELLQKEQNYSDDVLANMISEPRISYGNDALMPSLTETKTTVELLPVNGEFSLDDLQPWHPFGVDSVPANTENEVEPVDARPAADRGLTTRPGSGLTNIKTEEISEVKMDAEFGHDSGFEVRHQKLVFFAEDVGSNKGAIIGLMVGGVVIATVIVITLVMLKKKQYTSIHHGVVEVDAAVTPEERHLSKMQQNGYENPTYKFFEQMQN

Columns and labels:
[1] = biological target: amyloid precursor protein (APP), transfected into HeLa or HEK293 cells (UniProt P05067); test: α-Flag IP from HeLa/APP cells incubated with Flagged peptides, Western blot
[2] = biological target: endogenous APP of mouse brain cells (mouse) (UniProt P12023); test: α-Flag IP from cultured mouse brain cells incubated with peptide, Western blot
[3] = biological target: amyloid precursor protein (APP), transfected into HeLa or HEK293 cells (UniProt P05067); test: surface-biotinylated HeLa-APP cells, α-Flag IP, then streptavidin-bead precipitation, Western blot
[4] = biological target: amyloid precursor protein (APP), transfected into HeLa or HEK293 cells (UniProt P05067); test: α-Flag-agarose precipitation from HeLa-APP cells cultured 2 hrs with peptide, elution with Flag peptide, Western blot
[5] = biological target: amyloid precursor protein (APP), transfected into HeLa or HEK293 cells (UniProt P05067); test: competition with 40 µM N3-2A-F on HeLa/APP cells, α-Flag IP, Western blot

Binder	binding [1]	binding [2]	binding [3]	binding [4]	binding [5]
DAVYYCGLKY (peptide, not shown: small tags and cut ends) [N3-2A fused to a C-terminal Flag epitope (N3-2A-F)]	binds	binds	binds	binds	
DAVYYCGLKY [N3-2A, Modulator of β-cleavage of APP (MoBA)]					binds
